The source of these data is patent US7098310B1, “Heterodimers of retinoid X receptors (RXRS) and other steroid hormone receptors” (Ligand Pharmaceuticals, priority 1991, dated 2006).

Amino acid sequences for entries named in this document (tags omitted). A change or cut given only in a name is not applied to a line headed by its entry.
UniProt P63059: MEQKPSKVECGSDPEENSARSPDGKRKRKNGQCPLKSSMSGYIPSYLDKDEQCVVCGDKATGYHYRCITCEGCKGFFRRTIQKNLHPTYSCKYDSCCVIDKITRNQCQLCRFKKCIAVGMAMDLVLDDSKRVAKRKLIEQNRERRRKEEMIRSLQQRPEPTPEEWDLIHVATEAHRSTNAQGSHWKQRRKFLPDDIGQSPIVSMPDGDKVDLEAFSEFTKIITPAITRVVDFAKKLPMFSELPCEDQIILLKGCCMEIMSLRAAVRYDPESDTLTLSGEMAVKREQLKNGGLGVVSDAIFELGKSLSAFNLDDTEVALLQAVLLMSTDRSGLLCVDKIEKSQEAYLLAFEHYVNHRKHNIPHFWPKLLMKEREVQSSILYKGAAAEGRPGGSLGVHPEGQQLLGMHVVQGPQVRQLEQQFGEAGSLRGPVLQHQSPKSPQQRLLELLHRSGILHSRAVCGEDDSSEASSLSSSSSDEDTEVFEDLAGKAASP
UniProt P03372: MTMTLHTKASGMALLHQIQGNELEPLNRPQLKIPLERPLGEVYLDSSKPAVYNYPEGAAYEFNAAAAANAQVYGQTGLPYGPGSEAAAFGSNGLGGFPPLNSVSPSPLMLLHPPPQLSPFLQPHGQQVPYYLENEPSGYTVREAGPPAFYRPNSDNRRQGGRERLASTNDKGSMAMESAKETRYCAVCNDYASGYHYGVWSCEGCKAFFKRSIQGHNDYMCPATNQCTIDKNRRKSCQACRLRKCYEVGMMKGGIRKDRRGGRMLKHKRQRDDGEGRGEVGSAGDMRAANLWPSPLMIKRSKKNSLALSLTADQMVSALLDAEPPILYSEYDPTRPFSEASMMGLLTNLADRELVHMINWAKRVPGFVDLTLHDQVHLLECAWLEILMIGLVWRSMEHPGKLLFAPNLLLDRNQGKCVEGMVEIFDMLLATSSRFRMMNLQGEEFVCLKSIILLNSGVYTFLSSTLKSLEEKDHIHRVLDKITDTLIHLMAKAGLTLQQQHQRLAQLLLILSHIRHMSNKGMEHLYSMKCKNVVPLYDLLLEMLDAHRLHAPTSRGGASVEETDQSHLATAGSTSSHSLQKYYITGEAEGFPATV
UniProt P10276: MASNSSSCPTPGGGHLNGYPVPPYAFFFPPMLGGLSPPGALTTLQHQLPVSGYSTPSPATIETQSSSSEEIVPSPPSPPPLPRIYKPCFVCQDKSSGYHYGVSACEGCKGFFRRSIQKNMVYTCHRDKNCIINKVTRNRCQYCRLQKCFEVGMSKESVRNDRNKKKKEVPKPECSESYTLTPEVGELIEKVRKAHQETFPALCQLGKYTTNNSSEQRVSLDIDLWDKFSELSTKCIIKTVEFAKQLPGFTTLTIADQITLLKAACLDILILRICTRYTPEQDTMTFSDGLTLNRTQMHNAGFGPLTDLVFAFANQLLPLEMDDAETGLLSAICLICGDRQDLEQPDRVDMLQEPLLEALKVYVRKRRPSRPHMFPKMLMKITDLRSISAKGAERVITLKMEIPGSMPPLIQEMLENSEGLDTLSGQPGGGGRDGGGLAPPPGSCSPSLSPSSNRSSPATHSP

No constants are given. Whether binding was seen depends on the method and setting. A result given as binding can be weak or reduced; the word gives no strength.

Assay [1] concerns the target thyroid hormone receptor TRα (UniProt P63059). As to the kind of experiment: gel retardation, 32P palindromic TRE, in vitro translated receptors.
The next assay addresses FLAG-TRα (UniProt P63059). Described as above.
The target in assay [2] is thyroid hormone receptor TRα (UniProt P63059). As to the kind of experiment: gel retardation, 32P palindromic TRE, with or without T3 (10^-7 M).
The target is the same in assay [3]. The assay is described as follows: gel retardation with different 32P response elements.
Assay [4] has the same target. The assay is described as follows: gel retardation, 32P palindromic TRE.

Turning to “FLAG-RXRα (from UniProt P19793 1-462) (receptor)”, in assay [1], the binding result is listed as “binds”. On the same count and under the same terms, with “estrogen receptor (ER) (from UniProt P03372 1-595)” the entry was “no binding”. On the same count and under the same terms, with “retinoic acid receptor RARα (from UniProt P10276 1-462)” the entry was “no binding”. Take “retinoid x receptor (RXRα) (from UniProt P19793 1-462)”: the binding result (in assay [1]; with FLAG-TRα; in assay [2]; in assay [3]; in assay [4]) was “binds” each time.

B1: RXRαm5 (receptor, human, UniProt P19793 198-462, looked up)
chain: MGMKREAVQEERQRGKDRNENEVESTSSANEDMPVERILEAELAVEPKTETYVEANMGLNPSSPNDPVTNICQAADKQLFTLVEWAKRIPHFSELPLDDQVILLRAGWNELLIASFSHRSIAVKDGILLATGLHVHRNSAHSAGVGAIFDRVLTELVSKMRDMQMDKTELGCLRAIVLFNPDSKGLSNPAEVEALREKVYASLEAYCKHKYPEQPGRFAKLLLRLPALRSIGLKCLEHLFFFKLIGDTPIDTFLMEMLEAPHQMT
B1: the binding result in assay [1] is listed as “no binding”.

B2: RXRαm3 (receptor, human, UniProt P19793 28-462, looked up)
chain: MAAPSLHPSLGPGIGSPGQLHSPISTLSSPINGMGPPFSVISSPMGPHSMSVPTTPTLGFSTGSPQLSSPMNPVSSSEDIKPPLGLNGVLKVPAHPSGNMASFTKHICAICGDRSSGKHYGVYSCEGCKGFFKRTVRKDLTYTCRDNKDCLIDKRQRNRCQYCRYQKCLAMGMKREAVQEERQRGKDRNENEVESTSSANEDMPVERILEAELAVEPKTETYVEANMGLNPSSPNDPVTNICQAADKQLFTLVEWAKRIPHFSELPLDDQVILLRAGWNELLIASFSHRSIAVKDGILLATGLHVHRNSAHSAGVGAIFDRVLTELVSKMRDMQMDKTELGCLRAIVLFNPDSKGLSNPAEVEALREKVYASLEAYCKHKYPEQPGRFAKLLLRLPALRSIGLKCLEHLFFFKLIGDTPIDTFLMEMLEAPHQMT
notes: range 28-C-terminus
Turning to B2, the binding result in assay [1] and in assay [4] was “binds” throughout.

B3: RXRαm4 (receptor, human, UniProt P19793 61-462, looked up)
chain: MGPPFSVISSPMGPHSMSVPTTPTLGFSTGSPQLSSPMNPVSSSEDIKPPLGLNGVLKVPAHPSGNMASFTKHICAICGDRSSGKHYGVYSCEGCKGFFKRTVRKDLTYTCRDNKDCLIDKRQRNRCQYCRYQKCLAMGMKREAVQEERQRGKDRNENEVESTSSANEDMPVERILEAELAVEPKTETYVEANMGLNPSSPNDPVTNICQAADKQLFTLVEWAKRIPHFSELPLDDQVILLRAGWNELLIASFSHRSIAVKDGILLATGLHVHRNSAHSAGVGAIFDRVLTELVSKMRDMQMDKTELGCLRAIVLFNPDSKGLSNPAEVEALREKVYASLEAYCKHKYPEQPGRFAKLLLRLPALRSIGLKCLEHLFFFKLIGDTPIDTFLMEMLEAPHQMT
notes: range 61-462; 35S-labelled in the column experiment; also called mutant RXRαm4
Consider B3, for which the binding entry in assay [1] and in assay [4] was “binds” each time.

B4: RXRαm6 (receptor, human, UniProt P19793 1-462, looked up)
chain: MDTKHFLPLDFSTQVNSSLTSPTGRGSMGMKREAVQEERQRGKDRNENEVESTSSANEDMPVERILEAELAVEPKTETYVEANMGLNPSSPNDPVTNICQAADKQLFTLVEWAKRIPHFSELPLDDQVILLRAGWNELLIASFSHRSIAVKDGILLATGLHVHRNSAHSAGVGAIFDRVLTELVSKMRDMQMDKTELGCLRAIVLFNPDSKGLSNPAEVEALREKVYASLEAYCKHKYPEQPGRFAKLLLRLPALRSIGLKCLEHLFFFKLIGDTPIDTFLMEMLEAPHQMT
notes: In vitro translated deletion mutant
As for B4, the binding entry in assay [1] is reported as “no binding”.
